Values of other authors in patent US20080255097A1, “Methods for the Treatment of Substance Abuse and Dependence” (priority 2005, published 2008).
At least one compound was matched to its structure with a doubt left.

Key:
GABAA receptors = conditions: 100 mM GHB substituted for ethanol
[1] = tested on: GABAA receptor α4 subunit mRNA; conditions: exposure at the time of ethanol withdrawal

Structure (SMILES): O=C(O)CCCO [GHB, Gamma-hydroxybutyrate]
- effect on positive modulation of 3 μM flumazenil induced by ethanol withdrawal (GABAA receptors): negated
- effect on ethanol withdrawal-induced increase in abundance of α4 subunit mRNA [1]: inhibition
